{
  "source": "PubChem BioAssay AID1471",
  "about": "(National Center for Advancing Translational Sciences (NCATS), 2008)",
  "note": "Where “and” joins values, the source holds several entries; their conditions need not be identical. Identical values can stand only once. Out of some 230,000 compounds screened, about 310 (0.13%) were called active. Inconclusive results, whose numbers are uncertain, are shown with a selection of clear calls. The call rests on the fitted dose curve; in most records, active means well fitted activation curve with a large enough effect; inconclusive means small, poorly fitted or top-dose-only effect; inactive means no such curve, though single readings can be large or run the other way. A potency beside an inconclusive call is a rough fit, not a confirmed value. Potency means the concentration at half of the fitted maximal effect.",
  "data": [
    {"experiment": "qHTS Multiplex Assay to Identify Dual Action Probes in a Cell Model of Huntington: Cytoprotection (ATP); further: nearly all actives have a fitted effect of over 45% in size;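 on cytoprotection (ATP increase): toxic huntingtin expression switched on by the ecdysone agonist tebufenozide; % of control where 0% means no effect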", "conditions": "PC12 HTT-Q103 induced, ATP luminescence, 40 h; cytoprotection (ATP increase): at 56.4 µM (top of the series) unless noted", "procedure,_shortened": "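PC12 cells with ecdysone-inducible HTT exon 1 Q103-GFP, induced with 100 nM tebufenozide and co-treated with library compounds in a dose series (1536-well, 1500 cells/well). Cytoprotection read as ATP content by ATPlite luminescence.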", "values": [
      {"smiles": "CN(C(=O)c1ccc(OC2CCN(C(=O)c3cccnc3)CC2)cc1)C1CCCCC1", "Potency": "inconclusive: 6.31 µM [activator, single point]"},
      {"smiles": "Clc1ccccc1-c1nc(-c2ccccc2)n[nH]1", "cytoprotection (ATP increase)": "inactive: -25.5%"},
      {"smiles": "Cc1cc(N2CCN(C/C=C/c3ccccc3)CC2)n2ncnc2n1", "Potency": "inconclusive: 3.16 µM [activator, partial curve, poor fit]"},
      {"smiles": "COc1ccc(C(=O)N/N=C(\\Cc2ncc[nH]2)c2ccccc2)cc1", "cytoprotection (ATP increase)": "inactive: -54.1%"},
      {"smiles": "C[C@@]12CCC(=O)C[C@@H]1CC(=O)[C@H]1[C@H]3CCC[C@]3(C)C(=O)C[C@@H]12", "note": "(tested in a mixture with another compound)", "Potency": "inconclusive: 0.251 µM [activator, full curve]"},
      {"smiles": "CC1CCCN(C(c2cccs2)c2nnnn2Cc2ccccc2)C1", "note": "(stereo unspecified)", "cytoprotection (ATP increase)": "inactive: -14.7%"},
      {"smiles": "N#C/C(=C\\c1ccccc1)C(=O)Nc1cc(S(=O)(=O)N2CCOCC2)ccc1N1CCCC1", "Potency": "active: 0.708 µM"},
      {"smiles": "Nc1ncnc(Nc2ccccn2)c1[N+](=O)[O-]", "Potency": "inconclusive: 4.47 µM [activator, single point]"},
      {"smiles": "O=C1NCC2(CCN(CCc3ccccc3)CC2)O1", "Potency": "inconclusive: 0.562 µM [activator, full curve]"},
      {"smiles": "O=C(COc1ccccc1/C=C\\c1[nH]c(=O)[nH]c(=O)c1[N+](=O)[O-])Nc1ccccc1", "Potency": "inconclusive: 35.5 µM [activator, single point]"},
      {"smiles": "COCCNc1nc(-c2cccc(NS(C)(=O)=O)c2)nc2ccccc12", "cytoprotection (ATP increase)": "inactive: -88.7%"},
      {"smiles": "CCN(CC)S(=O)(=O)c1ccc(Cc2ncc(C(F)(F)F)cc2Cl)s1", "cytoprotection (ATP increase)": "inactive: -17%"},
      {"smiles": "Fc1ccc(C(c2nnnn2Cc2cccs2)N2CCN(c3ccccc3)CC2)cc1", "note": "(stereo unspecified)", "Potency": "inconclusive: 0.112 µM [activator, partial curve, poor fit]"},
      {"smiles": "Nc1c(Cl)ncnc1N1CCOCC1", "Potency": "inconclusive: 0.891 µM [activator, single point]"},
      {"smiles": "Cc1cccc2c1CC(C)(C)N=C2C1=C(O)CC(C)(C)CC1=O", "Potency": "inconclusive: 35.5 µM [activator, single point]"},
      {"smiles": "CC(C)Cc1[nH]c(=O)c(C#N)c2c1COC(C)(C)C2", "Potency": "inconclusive: 1.26 µM [activator, single point]"},
      {"smiles": "CCOC(=O)O[C@@H](C)OC(=O)[C@@H]1N2C(=O)[C@@H](NC(=O)[C@@H](N)c3ccccc3)[C@H]2SC1(C)C", "Potency": "inconclusive: 0.316 µM [activator, full curve, poor fit]"},
      {"smiles": "COc1ccccc1C(=O)Nc1cccc(N(C)S(C)(=O)=O)c1", "cytoprotection (ATP increase)": "inactive: 3.85% [at 10 µM]"},
      {"smiles": "Cc1ccc(C(=O)CSc2nnnn2C(C)C)c(C)c1", "cytoprotection (ATP increase)": "inactive: -13.2% [at 10 µM]"},
      {"smiles": "CCOc1ccc(S(=O)(=O)Nc2ccccc2C(=O)Nc2ccccc2N2CCOCC2)cc1", "cytoprotection (ATP increase)": "inactive: -8.97% [at 10 µM]"},
      {"smiles": "Cc1ccc(S(=O)(=O)N(CC(=O)N2CCC(C)CC2)c2cccc(C)c2)cc1", "cytoprotection (ATP increase)": "inactive: 16.4%"},
      {"smiles": "O=C(Oc1ccccc1)c1c(Cl)cccc1P(=O)(O)O", "Potency": "inconclusive: 5.62 µM [activator, single point]"},
      {"smiles": "CN(O)/C=N/C(=S)Nc1ccc(Cl)cc1Cl", "Potency": "inconclusive: 7.08 µM [activator, partial curve]"},
      {"smiles": "CCOc1ncccc1C(=O)Nc1nnc(C(CC)CC)s1", "cytoprotection (ATP increase)": "inactive: 4.63%"},
      {"smiles": "COc1ccc(CCNC(=O)c2cn3ccc(C)cc3n2)cc1OC", "cytoprotection (ATP increase)": "inactive: -42.6%"},
      {"smiles": "CCCCc1cc2c(cn1)=C(OC(=O)c1cnc3ccccc3n1)C(C)(OC(=O)CC)C(=O)C=2", "note": "(stereo unspecified)", "cytoprotection (ATP increase)": "inactive: -17.2% [at 10 µM] and inactive: -5.02% [at 10 µM]"},
      {"smiles": "Cc1ccc(NC(=O)COC(=O)Cn2cnc3ccccc32)cc1S(=O)(=O)N(C)C", "cytoprotection (ATP increase)": "inactive: 3.97% [at 10 µM]"},
      {"smiles": "O=C(NNc1ccccc1Br)C(=O)n1ccc2ccccc21", "Potency": "active: 3.55 µM"},
      {"smiles": "CCOC(=O)c1c(NC(=S)Nc2ccccc2)sc2c1CCN(C)C2", "Potency": "inconclusive: 5.62 µM [activator, single point]"},
      {"smiles": "CCOC(=O)c1ccc(S(=O)(=O)NNC(=O)c2ccc3c(c2)nc(C)n3CC)cc1", "Potency": "inconclusive: 0.891 µM [activator, full curve, poor fit]"},
      {"smiles": "Cn1cccc1C(=O)N1CCC2(CCN(C(=O)Nc3ccccc3)CC2)CC1", "Potency": "inconclusive: 7.08 µM [activator, partial curve]"},
      {"smiles": "COCCSc1nnc(NS(=O)(=O)c2ccc(C)cc2)s1", "Potency": "inconclusive: 0.562 µM [activator, full curve, poor fit]"},
      {"smiles": "Clc1cccc(Cl)c1NC1=NCCN1", "Potency": "inconclusive: 89.1 nM [activator, partial curve, poor fit] and inconclusive: 7.08 µM [activator, full curve, poor fit]"},
      {"smiles": "COc1ccc(C(=O)C2C(c3ccc(-c4ccccc4[N+](=O)[O-])o3)NC(=O)NC2(O)C(F)(F)F)cc1", "note": "(stereo unspecified)", "Potency": "inconclusive: 1.26 µM [activator, single point]"},
      {"smiles": "Cc1ccc2cccnc2c1", "Potency": "active: 6.31 µM"},
      {"smiles": "COC(=O)C1CCN(Cc2ccc(C)cc2)CC1", "cytoprotection (ATP increase)": "inactive: 9.17%"},
      {"smiles": "CCn1c(CCCc2ccc(OC)c(C)c2)n[nH]c1=S", "Potency": "inconclusive: 1.41 µM [activator, partial curve]"},
      {"smiles": "Cc1ccc(S(=O)(=O)NCc2nc3ccccc3c(=O)n2N)cc1", "Potency": "inconclusive: 31.6 µM [activator, single point]"},
      {"smiles": "Cc1ccc2nc3sc(C(=O)N4CCCc5ccccc54)c(N)c3cc2c1", "cytoprotection (ATP increase)": "inactive: -24.1% [at 10 µM]"},
      {"smiles": "CCCNC(=O)NS(=O)(=O)c1ccc(Cl)cc1", "Potency": "inconclusive: 0.562 µM [activator, full curve, poor fit]"},
      {"smiles": "O=C(O)c1cc([N+](=O)[O-])ccc1Nc1ccccc1", "Potency": "inconclusive: 3.16 µM [activator, partial curve]"},
      {"smiles": "COc1ccc(C2CC(c3ccccc3)=NN2C(=O)COC(=O)C2(C)CC2(Cl)Cl)cc1", "note": "(stereo unspecified)", "cytoprotection (ATP increase)": "inactive: -73.5%"},
      {"smiles": "CCCC(=O)Nc1c(-c2ccccc2)c(=O)c(C)nn1-c1ccc(C)cc1", "cytoprotection (ATP increase)": "inactive: 0.885% [at 10 µM]"},
      {"smiles": "N#Cc1ccccc1CSC1=NCCS1", "cytoprotection (ATP increase)": "inactive: 1.87% [at 10 µM]"},
      {"smiles": "COC(=O)c1cccc(COC(=O)c2cccnc2SC)c1", "cytoprotection (ATP increase)": "inactive: -15.3%"},
      {"smiles": "S=C(NCCCn1ccnc1)Nc1ccc(Cl)cc1Cl", "Potency": "inconclusive: 5.62 µM [activator, single point]"},
      {"smiles": "CC1=C(C(=O)N2CCOCC2)C(c2ccc(OC(F)F)cc2)NC(=S)N1c1ccccc1", "note": "(stereo unspecified)", "Potency": "inconclusive: 35.5 µM [activator, single point]"},
      {"smiles": "CCOC(=O)CC(NC(=O)CCc1c(C)nc2ncnn2c1C)c1ccc(C)cc1", "note": "(stereo unspecified)", "cytoprotection (ATP increase)": "inactive: -5.57%"},
      {"smiles": "O=C(c1ccc(=O)n(Cc2ccccc2)n1)N1CCN(C/C=C/c2ccccc2)CC1", "Potency": "inconclusive: 1.26 µM [activator, single point]"},
      {"smiles": "CCOc1cccc(/C=C2/NC(=O)N(CC(=O)Nc3cccc(C)c3)C2=O)c1O", "Potency": "inconclusive: 0.891 µM [activator, full curve, poor fit]"},
      {"smiles": "Cc1cccc(NC(=S)NCc2ccco2)n1", "Potency": "inconclusive: 1.26 µM [activator, single point]"},
      {"smiles": "N#C/C(=N\\Nc1cccc(C(F)(F)F)c1)C(=O)c1ccsc1", "cytoprotection (ATP increase)": "inactive: -48.9% [at 10 µM]"},
      {"smiles": "Cc1ccc(C(=O)N2CCN(c3ccccn3)CC2)cc1[N+](=O)[O-]", "cytoprotection (ATP increase)": "inactive: -16.4%"},
      {"smiles": "CSCCOC(=O)C1=C(C)Nc2ccc(C)cc2S1", "Potency": "inconclusive: 3.16 µM [activator, partial curve]"},
      {"smiles": "CNCCc1ccccn1", "Potency": "inconclusive: 12.6 µM [activator, single point]"},
      {"smiles": "CC(C)(C)NC[C@H](O)CSc1nc(-c2ccc(C(N)=O)s2)cs1", "cytoprotection (ATP increase)": "inactive: 29.3%"},
      {"smiles": "CC(C)NC(=O)c1nn2c(C(F)(F)F)cc(-c3ccco3)nc2c1Cl", "Potency": "inconclusive: 4.47 µM [activator, single point]"},
      {"smiles": "O=c1[nH][nH]c(=O)c2cc([N+](=O)[O-])ccc12", "Potency": "inconclusive: 39.8 µM [activator, single point]"},
      {"smiles": "COc1ccc(-c2cc(C(=O)NCc3cccs3)no2)cc1", "cytoprotection (ATP increase)": "inactive: 5.11% [at 10 µM]"},
      {"smiles": "Nc1cc(Oc2ccc(F)cc2F)cc([N+](=O)[O-])c1", "Potency": "inconclusive: 35.5 µM [activator, single point]"},
      {"smiles": "CCOC(=O)c1c(N)sc(C(=O)OC)c1C", "cytoprotection (ATP increase)": "inactive: 6.81% [at 10 µM]"},
      {"smiles": "CC12CCC(C/C1=N/O)C2(C)C", "note": "(stereo unspecified)", "Potency": "inconclusive: 5.62 µM [activator, single point]"},
      {"smiles": "CC(C)CN1CC2(CCN(C(=O)c3ccco3)CC2)C1", "cytoprotection (ATP increase)": "inactive: 5.13%"},
      {"smiles": "CCOC(=O)Cn1c(=N)n(CCOc2ccc(F)cc2)c2ccccc21", "cytoprotection (ATP increase)": "inactive: -11.7% [at 10 µM]"},
      {"smiles": "CN1CCCN(C)C1c1cc([N+](=O)[O-])ccc1O", "cytoprotection (ATP increase)": "inactive: -7.58% [at 10 µM]"},
      {"smiles": "CC(=O)N/N=C/c1cc(C(C)(C)C)cc(/C=N/NC(C)=O)c1O", "Potency": "inconclusive: 5.62 µM [activator, single point]"},
      {"smiles": "C[C@H](C(=O)O)c1cccc(Oc2ccccc2)c1", "Potency": "inconclusive: 0.0708 µM [activator, full curve, poor fit]"},
      {"smiles": "C=C1C(=O)O[C@@H]2[C@H]1[C@@H](OC(=O)/C(C)=C/C)C/C(C)=C\\C(=O)/C=C(\\C)[C@@H]2O", "Potency": "inconclusive: 3.98 µM [activator, single point]"},
      {"smiles": "COCCn1c(=O)cnc2cnc(Nc3cccc(OC)c3)nc21", "Potency": "inconclusive: 7.94 µM [activator, full curve]"},
      {"smiles": "CCOc1ccc(N2C(=O)CNC2=S)cc1", "Potency": "inconclusive: 0.0056 µM [activator, full curve, poor fit]"},
      {"smiles": "CC/C(=C\\c1oc2cc3ccccc3cc2[n+]1CC)Nc1ccccc1", "Potency": "inconclusive: 15.8 µM [activator, single point]"}
    ]}
  ]
}
